Measured values: PubChem BioAssay AID1347431 (National Center for Advancing Translational Sciences (NCATS), 2020)
The campaign covered roughly 1,200 compounds. Fewer than 10 were called active. Calls come from the whole dose curve; as a rule, active = well fitted curve in the direction sought with a large enough effect; inconclusive = small, poorly fitted or top-dose-only effect, or another doubt; inactive = no such curve, though single readings can be large or run the other way. Some of the results follow.

Assay: Confirmatory qHTS assay for inhibitors of Activation Induced Cytidine Deaminase (AID): UDG signals; note: 0% is about no effect
Details: UDG coupled enzyme activity counter-screen; at 115 µM (top of the series) unless noted
From the text: Assay Provider (PI) Patricia Gearhart Ph.D.
National Institute on Aging
National Institute of Health (NIH), Bethesda, MD
Assay Provider (PI) Rahul Kohli Ph.D.
Perelman School of Medicine
University of Pennsylvania, Philadelphia, PA
Activation-Induced Deaminase (AID) is a cytosine deaminase which converts cytosine into uracil within stretches of ssDNA. The presence of uracil in DNA initiates a cascade of mutagenic DNA repair to introduce point mutations and DNA double strand breaks. Specific targeting of AID to the immunoglobulin heavy chain loci (Igh) promotes mutagenesis in the antibody variable region for somatic hypermutation (SHM) or switch regions leading to class switch recombination (CSR). However, AID also plays a role in accumulating unnecessary mutations across the genome. Mis-targeting of AID results in the initiation of tumor development and leads to greater drug resistance among cancer cells when continually expressed. To identify an AID inhibitor, a small molecule library will be screened in collaboration with NCATS core facility at NIH. To confirm biological function, inhibitors will be examined in an in vitro murine B-cell activation assay and subsequent secondary validation screens. Top molecules will be further screened to identify inhibitory efficacy against a wild type primary splenocytes assay. Using these approaches, we hope to identify a small molecule with great efficacy and low toxicity for use as a molecular probe to further characterize AID's intricacies, or even as a therapeutic.
A FRET based analysis of cytosine deamination, was developed to identify potential inhibitors of AID catalytic activity. This screen has two signal output, Read 1 evaluates the AID inhibition response. The second readout (Read 2) evaluates UDG response and is uses as a counterscreen to exclude false positive inhibitors. Inhibition in AID and inactivity in the UDG signal is the desired outcome for this assay.
SEQUENCE No. (e.g., 1, 2, 3, etc.); […] (e.g., Cells, Incubation, Reagent, etc.); VALUE; DESCRIPTION
1a; Reagent; 3 uL; [4/3x] 1 uM AID/2.67 U/mL UDG
1b; Reagent; 3 uL; 2 U/mL UDG
1c; Reagent; 3 uL; 1 uM AID
2a; Compound; 46 nL; Follow-up plates (0.64 uM - 10 mM)
2b; Control; 46 nL; ATA ([…] - 10 mM)
3; Time; 10 min; incubation at room temperature
5; Time; 4 hr; incubation at room temperature
6; Reagent; 4 uL; [2x] 250 mM NaOH
7; Time; 15 sec; centrifuge at 1000 rpm
8; Time; 30 min; incubation at room temperature
9a; Detection; fluorescence (Read 1: AID); EnVision (PerkinElmer) plate reader, 540 excitation and 590 emission filters
9b; Detection; fluorescence (Read 2: UDG); EnVision (PerkinElmer) plate reader, 560 excitation and 665 emission filters
NOTES (numbers refer to sequence above)
1a; Reagents were dispensed in a medium-binding black solid-bottom Greiner plates (789176F) using a BioRptr liquid dispenser. Dispense 3 uL of [4/3x] 1 uM AID (provided by Kohli lab) and [4/3x] 2 U/mL UDG (NEB M0280L) into columns 1, 2, 5 to 48.
1b; Dispense 3 uL of [4/3x] 2 U/mL UDG into column 3.
1c; Dispense 3 uL of [4/3x] 1 uM AID into column 4.
2a; Compound (7-points [uM]: 0.64; 3.2; 16; 80; 400; 2,000; 10,000; […]) double pin-transferred (Dip Factor = 2) using the Kalypsys (Wako USA) pintool equipped with a 1536 pinhead for a final concentration range of 7.32 nM - 114 uM.
2b; 10 mM Aurintricarboxylic Acid (Sigma A1895) (ATA, 8-point, n = 2, 1:2.5 dilution in column 2) double pin-transferred (Dip Factor = 2) using the Kalypsys (Wako USA) pintool equipped with a 1536 pinhead for a [final] range of 186 nM - 114 uM.
3; Room temperature incubation.
4; Dispense 1 uL of substrate mixture from the Kohli lab [4x] […] DJC20 and [4x] 250 nM DJC23 into columns 1 to 48 .
5; Room temperature incubation.
6; Dispense 4 uL of substrate mixture [2x] 250 mM NaOH into columns 1 to 48.
7; Centrifugation step to remove bubbles.
8; Room temperature incubation
9a; Fluorescence signal (column label AID) was read using the EnVision plate reader. […]

| SMILES | activity change, negative = inhibition |
| --- | --- |
| COc1ccc(OC)c(CNC(=O)CSc2c3c(nc4cc(Cl)ccc24)CCCC3)c1 | inactive: 2.75% |
| Cc1nc2c(C(=O)NCCc3ccc(Cl)cc3)cnn2c(C)c1Cc1ccc(F)cc1 | inactive: -12.3% |
| COc1ccc(C(=O)Nc2nc3n(n2)C(c2ccc(Cl)cc2)C=C(c2ccccc2)N3)cc1OC (stereo not given) | inactive: 3.15% |
| Cc1ccc(CSC2=Nc3ccccc3C3=NC(CC(=O)NCc4ccc5c(c4)OCO5)C(=O)N23)cc1 (stereo not given) | inactive: -6.61% |
| COc1ccc(OC)c(NC(=O)Cn2c(=O)cc(C)c3c(C)nn(-c4cccc(Cl)c4C)c32)c1 | inactive: 10.9% |
| O=C(NCCc1ccc(Cl)cc1)c1ccc2c(c1)N(Cc1ccc(Cl)cc1)C(=O)CS2 | inactive: -0.445% |
| O=S1(=O)c2ccccc2N(Cc2ccc(Cl)cc2)c2ccccc21 | inactive: 3.98% |
| COc1cccc(C(=O)Nc2ccc3oc(-c4cccc5c(Br)cccc45)nc3c2)c1 | inactive: 5.57% |
| Cc1cc(Cl)ccc1OCC(=O)N(Cc1ccco1)Cc1ccccc1F | inactive: -8% |
| COc1ccc(NCc2cccn2-c2nnc(N3CCCCCC3)s2)cc1 | inactive: -2.84% |
| CC(=O)c1ccc(NC(=O)C2CCN(c3nnc(C)c4c(C)n(-c5ccccc5)nc34)CC2)cc1 | inactive: -10.7% |
| CCCCn1c(CNC(=O)C23CC4CC(CC(C4)C2)C3)nnc1SCC(=O)Nc1ccc(C)cc1 | inactive: -9.95% |
| Cn1c(=O)c2sccc2n2c(CCCC(=O)Nc3ccc(Oc4ccccc4)cc3)nnc12 | inactive: -1.79% |
| COc1ccc(C(=O)c2cn(Cc3ccccc3F)c3cc4c(cc3c2=O)OCCO4)cc1OC | inactive: 5.33% |
| COc1ccc(C(=O)c2sc3nc4c(c(C(F)(F)F)c3c2N)CN(C(C)=O)CC4)cc1OC | inactive: -9.61% |
| Cc1ccc(C2=NN(CC(=O)NCCN(CC(C)C)CC(C)C)C(=O)CC2)cc1 | inactive: -12.8% |
| CC(C)n1c(SCC(=O)Nc2ccc(F)cc2)nc2c(oc3ccccc32)c1=O | inactive: -8.77% |
| CCN(c1cccc(C)c1)S(=O)(=O)c1nnc(NC(=O)c2ccccc2Cl)s1 | inactive: 0.737% |
| COc1ccc(-c2cn3cccnc3n2)cc1NC(=O)c1cc(C)cc(C)c1 | inactive: 3.16% |
| COc1ccc(CCNC(=O)Cn2c(=O)c3cccn3c3ccc(F)cc32)cc1OC | inactive: 13.5% |

3 neighbouring entries from above, for reference:

| SMILES | activity change, negative = inhibition |
| --- | --- |
| COc1ccc(NCc2cccn2-c2nnc(N3CCCCCC3)s2)cc1 | inactive: -2.84% |
| CC(=O)c1ccc(NC(=O)C2CCN(c3nnc(C)c4c(C)n(-c5ccccc5)nc34)CC2)cc1 | inactive: -10.7% |
| CCCCn1c(CNC(=O)C23CC4CC(CC(C4)C2)C3)nnc1SCC(=O)Nc1ccc(C)cc1 | inactive: -9.95% |

Later entries:

| SMILES | activity change, negative = inhibition |
| --- | --- |
| Cc1ccc(Nc2c3c(nc4nc(-c5cccs5)nn24)CCCC3)cc1F | inactive: -0.603% |
| COc1ccc(N2C(=O)CSC23C(=O)N(Cc2cccc(C(F)(F)F)c2)c2ccccc23)cc1 (stereo not given) | inactive: -6.88% |
| CC(=O)[C@]1(O)Cc2c(O)c3c(c(O)c2[C@@H](O[C@H]2C[C@H](N)[C@H](O)[C@H](C)O2)C1)C(=O)c1ccccc1C3=O | inactive: 65.3% |
| COc1ccc(-c2csc3nc(-c4ccc(C)cc4)oc(=O)c23)cc1OC | inactive: -0.182% |
| CCOC(=O)c1ccc(NC(=O)CSc2ncc(S(=O)(=O)c3ccc(C)c(Cl)c3)c(=O)[nH]2)cc1 | inactive: -1.48% |
| CCOc1ccc(NC(=O)[C@@H](c2ccccc2)N2Cc3ccccc3C2=O)cc1 | inactive: -0.603% |
| COc1cccc(N2CCN(C(=O)c3ccc4c(Cl)c5c(nc4c3)CCCC5)CC2)c1 | inactive: -4.95% |
| Cc1cc2c(cc3c(SCc4cccc(Cl)c4)nnc(C)n32)o1 | inactive: -1.12% |
| COc1ccc(C(=O)N(Cc2ccco2)Cc2ccccc2F)cc1Cl | inactive: -5.67% |
| O=S(=O)(NCCc1nnc2ccc(SCc3cccc(Cl)c3)nn12)c1ccccc1 | inactive: 3.29% |
| COc1ccc(Nc2ncc(C(=O)Nc3cccc(OC)c3)c3ccccc23)cc1 | inactive: -10.9% |
| Cc1ccc(Cl)cc1N(C)C(=O)c1sc2nc3n(c(=O)c2c1C)CCCC3 | inactive: -5.4% |
| CC1=C(C(=O)NCc2cccc(Cl)c2)C2(CCCCCC2)OC1=O | inactive: -1.36% |
| Cc1ccc2c(c1)-c1ncc(C(=O)c3cc(Br)ccc3O)cc1CO2 | inactive: -6.67% |
| Cc1cc(C)cc(Nc2cc(C)nc3nc(-c4ccco4)nn23)c1 | inactive: 12.5% |
| O=C(Nc1ccc(F)cc1F)N1CCN(c2ccc(Cl)c(Cl)c2)CC1 | inactive: -6.01% |
| CCCCOc1cccc(C(=O)Nc2cccc3ccc(C)nc23)c1 | inactive: -5.04% |
| COc1cc(OC)cc(C(=O)Nc2ccc3nc(N4CCC(C)CC4)cc(C)c3c2)c1 | inactive: -9.5% |
| Cc1ccc(C)c(N2CCN(C(=O)c3ccc4c(Cl)c5c(nc4c3)CCCC5)CC2)c1 | inactive: -5.68% |
| COc1ccc(C)cc1N(C)C(=O)c1sc2nc3n(c(=O)c2c1C)CCCCC3 | inactive: 1.37% |
